The list shows a part of the results.
Experiments:
Experiment in all cases: glycan array binding signal (z-score within array); higher = stronger binding
Conditions in all cases: glycan notation: IUPAC condensed, linker removed
[1] = biological target: Man(b1-4)GlcNAc
How it was run: (§1)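 Glycan array binding is given as a within-array Z-score, which can be read as non-binding when negative. The arrays, 3228 of them, came from the Consortium for Functional Glycomics database and were retained only where the protein sequence was available. Z-scores were averaged across arrays of the same protein sequence at different concentrations or buffers and across linkers.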

[2] = biological target: Neu5Ac(a2-3)Gal
How it was run: as §1

[3] = biological target: Neu5Ac(a2-3)Gal(b1-3)GalNAc
How it was run: as §1

[4] = biological target: Neu5Ac(a2-3)Gal(b1-3)GalNAc(b1-3)Gal(a1-4)Gal(b1-4)Glc
How it was run: as §1

[5] = biological target: Neu5Ac(a2-3)Gal(b1-3)GalNAc(b1-4)[Neu5Ac(a2-3)]Gal(b1-4)Glc
How it was run: as §1

[6] = biological target: Neu5Ac(a2-3)Gal(b1-3)GalNAc6S
How it was run: as §1

[7] = biological target: Neu5Ac(a2-3)Gal(b1-3)GlcNAc
How it was run: as §1

[8] = biological target: Neu5Ac(a2-3)Gal(b1-3)GlcNAc(b1-3)Gal(b1-3)GlcNAc
How it was run: as §1

[9] = biological target: Neu5Ac(a2-3)Gal(b1-3)GlcNAc(b1-3)Gal(b1-4)GlcNAc
How it was run: as §1

[10] = biological target: Neu5Ac(a2-3)Gal(b1-3)GlcNAc6S
How it was run: as §1

[11] = biological target: Neu5Ac(a2-3)Gal(b1-3)[Fuc(a1-4)]GlcNAc
How it was run: as §1

[12] = biological target: Neu5Ac(a2-3)Gal(b1-3)[Fuc(a1-4)]GlcNAc(b1-3)Gal(b1-4)[Fuc(a1-3)]GlcNAc
How it was run: as §1

[13] = biological target: Neu5Ac(a2-3)Gal(b1-3)[Neu5Ac(a2-3)Gal(b1-4)]GlcNAc
How it was run: as §1

[14] = biological target: Neu5Ac(a2-3)Gal(b1-3)[Neu5Ac(a2-6)]GalNAc
How it was run: as §1

[15] = biological target: Neu5Ac(a2-3)Gal(b1-4)Glc
How it was run: as §1

[16] = biological target: Neu5Ac(a2-3)Gal(b1-4)GlcNAc
How it was run: as §1

[17] = biological target: Neu5Ac(a2-3)Gal(b1-4)GlcNAc(b1-3)Gal(b1-3)GlcNAc
How it was run: as §1

[18] = biological target: Neu5Ac(a2-3)Gal(b1-4)GlcNAc(b1-3)Gal(b1-4)GlcNAc
How it was run: as §1

[19] = biological target: Neu5Ac(a2-3)Gal(b1-4)GlcNAc(b1-3)Gal(b1-4)GlcNAc(b1-3)Gal(b1-4)GlcNAc
How it was run: as §1

[20] = biological target: Neu5Ac(a2-3)Gal(b1-4)GlcNAc(b1-3)Gal(b1-4)[Fuc(a1-3)]GlcNAc
How it was run: as §1

[21] = biological target: Neu5Ac(a2-3)Gal(b1-4)GlcNAc(b1-6)[Gal(b1-3)]GalNAc
How it was run: as §1

[22] = biological target: Neu5Ac(a2-3)Gal(b1-4)GlcNAc6S
How it was run: as §1

[23] = biological target: Neu5Ac(a2-3)Gal(b1-4)[Fuc(a1-3)]GlcNAc
How it was run: as §1

[24] = biological target: Neu5Ac(a2-3)Gal(b1-4)[Fuc(a1-3)]GlcNAc(b1-3)Gal
How it was run: as §1

[25] = biological target: Neu5Ac(a2-3)Gal(b1-4)[Fuc(a1-3)]GlcNAc(b1-3)Gal(b1-4)GlcNAc
How it was run: as §1

[26] = biological target: Neu5Ac(a2-3)Gal(b1-4)[Fuc(a1-3)]GlcNAc(b1-3)Gal(b1-4)[Fuc(a1-3)]GlcNAc(b1-3)Gal(b1-4)[Fuc(a1-3)]GlcNAc
How it was run: as §1

[27] = biological target: Neu5Ac(a2-3)Gal(b1-4)[Fuc(a1-3)]GlcNAc6S
How it was run: as §1

[28] = biological target: Neu5Ac(a2-3)Gal6S(b1-4)GlcNAc
How it was run: as §1

[29] = biological target: Neu5Ac(a2-3)Gal6S(b1-4)[Fuc(a1-3)]GlcNAc
How it was run: as §1

[30] = biological target: Neu5Ac(a2-3)GalNAc
How it was run: as §1

[31] = biological target: Neu5Ac(a2-3)GalNAc(b1-4)GlcNAc
How it was run: as §1

[32] = biological target: Neu5Ac(a2-3)[GalNAc(b1-4)]Gal(b1-4)Glc
How it was run: as §1

[33] = biological target: Neu5Ac(a2-3)[GalNAc(b1-4)]Gal(b1-4)GlcNAc
How it was run: as §1

[34] = biological target: Neu5Ac(a2-3)[Neu5Ac(a2-6)]GalNAc
How it was run: as §1

[35] = biological target: Neu5Ac(a2-6)Gal(b1-4)GlcNAc
How it was run: as §1

[36] = biological target: Neu5Ac(a2-6)Gal(b1-4)GlcNAc(b1-2)Man(a1-3)[Neu5Ac(a2-6)Gal(b1-4)GlcNAc(b1-2)Man(a1-6)]Man(b1-4)GlcNAc(b1-4)GlcNAc
How it was run: as §1

[37] = biological target: Neu5Ac(a2-6)Gal(b1-4)GlcNAc(b1-3)Gal(b1-4)GlcNAc
How it was run: as §1

[38] = biological target: Neu5Ac(a2-6)Gal(b1-4)GlcNAc(b1-3)Gal(b1-4)[Fuc(a1-3)]GlcNAc(b1-3)Gal(b1-4)[Fuc(a1-3)]GlcNAc
How it was run: as §1

[39] = biological target: Neu5Ac(a2-6)Gal(b1-4)GlcNAc6S
How it was run: as §1

[40] = biological target: Neu5Ac(a2-6)GalNAc
How it was run: as §1

[41] = biological target: Neu5Ac(a2-6)GalNAc(b1-4)GlcNAc
How it was run: as §1

[42] = biological target: Neu5Ac(a2-8)Neu5Ac
How it was run: as §1

[43] = biological target: Neu5Ac(a2-8)Neu5Ac(a2-3)Gal(b1-4)Glc
How it was run: as §1

[44] = biological target: Neu5Ac(a2-8)Neu5Ac(a2-3)[GalNAc(b1-4)]Gal(b1-4)Glc
How it was run: as §1

[45] = biological target: Neu5Ac(a2-8)Neu5Ac(a2-8)Neu5Ac
How it was run: as §1

[46] = biological target: Neu5Ac(a2-8)Neu5Ac(a2-8)Neu5Ac(a2-3)Gal(b1-4)Glc
How it was run: as §1

[47] = biological target: Neu5Ac(a2-8)Neu5Ac(a2-8)Neu5Ac(a2-3)[GalNAc(b1-4)]Gal(b1-4)Glc
How it was run: as §1

[48] = biological target: Neu5Ac(a2-8)Neu5Ac(a2-8)Neu5Ac(a2-8)Neu5Ac(a2-3)[GalNAc(b1-4)]Gal(b1-4)Glc
How it was run: as §1

[49] = biological target: Neu5Ac9Ac(a2-6)Gal(b1-4)GlcNAc
How it was run: as §1

[50] = biological target: Neu5Gc(a2-3)Gal(b1-3)GlcNAc
How it was run: as §1

[51] = biological target: Neu5Gc(a2-3)Gal(b1-3)[Fuc(a1-4)]GlcNAc
How it was run: as §1

[52] = biological target: Neu5Gc(a2-3)Gal(b1-4)Glc
How it was run: as §1

[53] = biological target: Neu5Gc(a2-3)Gal(b1-4)GlcNAc
How it was run: as §1

[54] = biological target: Neu5Gc(a2-3)Gal(b1-4)[Fuc(a1-4)]GlcNAc
How it was run: as §1

[55] = biological target: Neu5Gc(a2-6)Gal(b1-4)GlcNAc
How it was run: as §1

[56] = biological target: Neu5Gc(a2-6)GalNAc
How it was run: as §1

B1: Tim-4 (Mus musculus), Q6U7R4 (protein)
chain: MSKGLLLLWLVTELWWLYLTPAASEDTIIGFLGQPVTLPCHYLSWSQSRNSMCWGKGSCPNSKCNAELLRTDGTRIISRKSTKYTLLGKVQFGEVSLTISNTNRGDSGVYCCRIEVPGWFNDVKKNVRLELRRATTTKKPTTTTRPTTTPYVTTTTPELLPTTVMTTSVLPTTTPPQTLATTAFSTAVTTCPSTTPGSFSQETTKGSAFTTESETLPASNHSQRSMMTISTDIAVLRPTGSNPGILPSTSQLTTQKTTLTTSESLQKTTKSHQINSRQTILIIACCVGFVLMVLLFLAFLLRGKVTGANCLQRHKRPDNTEDSDSVLNDMSHGRDDEDGIFTL
glycan array binding signal (z-score) [1]: 0.33 | glycan array binding signal (z-score) [2]: -0.733 | glycan array binding signal (z-score) [3]: -0.218 | glycan array binding signal (z-score) [4]: -0.701 | glycan array binding signal (z-score) [5]: 0.429 | glycan array binding signal (z-score) [6]: -0.314 | glycan array binding signal (z-score) [7]: -0.448 | glycan array binding signal (z-score) [8]: -0.753 | glycan array binding signal (z-score) [9]: -0.953 | glycan array binding signal (z-score) [10]: 0.27 | glycan array binding signal (z-score) [11]: -0.562 | glycan array binding signal (z-score) [12]: -0.184 | glycan array binding signal (z-score) [13]: -0.642 | glycan array binding signal (z-score) [14]: -0.613 | glycan array binding signal (z-score) [15]: -0.082 | glycan array binding signal (z-score) [16]: -0.376 | glycan array binding signal (z-score) [17]: -0.882 | glycan array binding signal (z-score) [18]: -0.482 | glycan array binding signal (z-score) [19]: -0.695 | glycan array binding signal (z-score) [20]: -0.452 | glycan array binding signal (z-score) [21]: -0.248 | glycan array binding signal (z-score) [22]: -0.51 | glycan array binding signal (z-score) [23]: -0.657 | glycan array binding signal (z-score) [24]: -0.474 | glycan array binding signal (z-score) [25]: 0.265 | glycan array binding signal (z-score) [26]: -0.207 | glycan array binding signal (z-score) [27]: -0.889 | glycan array binding signal (z-score) [28]: -0.06 | glycan array binding signal (z-score) [29]: -0.754 | glycan array binding signal (z-score) [30]: -0.538 | glycan array binding signal (z-score) [31]: -0.624 | glycan array binding signal (z-score) [32]: -0.529 | glycan array binding signal (z-score) [33]: -0.509 | glycan array binding signal (z-score) [34]: -0.437 | glycan array binding signal (z-score) [35]: -0.403 | glycan array binding signal (z-score) [36]: -0.414 | glycan array binding signal (z-score) [37]: -0.645 | glycan array binding signal (z-score) [38]: -0.155 | glycan array binding signal (z-score) [39]: 0.128 | glycan array binding signal (z-score) [40]: -0.265 | glycan array binding signal (z-score) [41]: -0.146 | glycan array binding signal (z-score) [42]: -0.484 | glycan array binding signal (z-score) [43]: -0.726 | glycan array binding signal (z-score) [44]: -0.76 | glycan array binding signal (z-score) [45]: -0.829 | glycan array binding signal (z-score) [46]: -0.545 | glycan array binding signal (z-score) [47]: 1.32 | glycan array binding signal (z-score) [48]: -0.463 | glycan array binding signal (z-score) [49]: -0.34 | glycan array binding signal (z-score) [50]: 0.286 | glycan array binding signal (z-score) [51]: -0.22 | glycan array binding signal (z-score) [52]: 0.064 | glycan array binding signal (z-score) [53]: 0.053 | glycan array binding signal (z-score) [54]: 0.082 | glycan array binding signal (z-score) [55]: -0.113 | glycan array binding signal (z-score) [56]: 0.227
